According to doi:10.1101/2023.11.10.566635:
No constants are given. Whether binding was seen depends on the method and setting. Binding seen in cells or lysates may run through a third protein.

By UniProt entry, the sequences of proteins in these tests, tags left out. Where a name states a change or a piece, a line headed by the entry shows the natural chain unless it says otherwise.
UniProt Q9WTX5: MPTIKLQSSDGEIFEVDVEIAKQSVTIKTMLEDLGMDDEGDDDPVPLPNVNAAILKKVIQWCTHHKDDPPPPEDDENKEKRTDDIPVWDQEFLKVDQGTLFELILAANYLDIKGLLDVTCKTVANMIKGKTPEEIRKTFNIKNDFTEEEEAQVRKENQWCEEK
UniProt Q9D417: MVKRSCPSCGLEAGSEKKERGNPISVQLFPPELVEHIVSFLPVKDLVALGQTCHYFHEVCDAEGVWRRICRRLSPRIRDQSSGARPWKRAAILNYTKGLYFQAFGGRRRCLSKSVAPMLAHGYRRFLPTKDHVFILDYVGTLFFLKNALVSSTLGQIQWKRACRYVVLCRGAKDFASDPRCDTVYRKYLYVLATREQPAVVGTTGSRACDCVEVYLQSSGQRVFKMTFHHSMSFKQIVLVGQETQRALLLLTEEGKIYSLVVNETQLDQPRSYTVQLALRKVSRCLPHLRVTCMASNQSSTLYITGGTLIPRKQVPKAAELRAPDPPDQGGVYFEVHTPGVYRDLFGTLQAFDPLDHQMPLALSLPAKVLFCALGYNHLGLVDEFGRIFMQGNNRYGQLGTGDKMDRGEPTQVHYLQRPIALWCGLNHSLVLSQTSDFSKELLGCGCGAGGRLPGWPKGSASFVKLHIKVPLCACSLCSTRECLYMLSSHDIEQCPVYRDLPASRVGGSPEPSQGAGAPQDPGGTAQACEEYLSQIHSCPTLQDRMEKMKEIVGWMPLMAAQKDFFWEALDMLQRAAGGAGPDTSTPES

Target: SKP1-1D4 (mouse) (UniProt Q9WTX5)
Experiment: co-IP; Fbxo24 (WT or ΔF)-FLAG co-expressed with Skp1-1D4 in HEK293T cells; IP with anti-1D4 or anti-FLAG antibody on Protein G magnetic beads, 1 h at 4°C; 1% Triton X-100 lysis buffer, 50 mM Tris-HCl pH 7.4, 150 mM NaCl; immunoblot

Substance: FBXO24 (ΔF) tagged with 3×FLAG, without the F-box domain (from UniProt Q9D417)
- binding: no binding
